Data as given in PubChem BioAssay AID1224826 (NIAID, 2016).

Screen: 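Knock-downs that raise or lower Tnf reporter signal after endotoxin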 (primary screen)
Cell system: RAW264.7 G9 macrophages from mouse bearing reporters for p65 (GFP) and the Tnf promoter (mCherry)
Reagent: siRNA pool against mouse genes, 100 nM
Timing: 16 h of LPS stimulation, after 2 days of siRNA transfection
Challenge: bacterial lipopolysaccharide (Salmonella minnesota R595), 10 ng/ml
Read-out: 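Imaged Tnf reporter mCherry in nuclei, minus background, normalised per plate to the median and expressed as robust z-scores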
Scale: Tnf reporter robust z-score: higher = stronger Tnf promoter reporter signal after LPS
Active means: 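Called active when robust z-score is at most -1.3, matching the median of the Tlr4 knock-down control, or over 3; control wells and wells with under 50 cells never active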
Calls: active = Tnf reporter clearly lowered or raised; inactive = no clear change in Tnf reporter
The deposit covers about 17,000 reagents; below is a part drawn at random. Of all reagents, about 1,110 (6.6%) were called active. 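Active means lowered or raised reporter signal; replicate intensities are raw and not normalised per plate.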 A number with no mark means an inactive call. Some reagents were tested in more than one well and are listed for each. Not all columns of the deposit are shown.

{"target gene": "Or5w18", "Tnf reporter robust z-score": -0.15, "fewer than 50 cells in well": "enough cells in well"}
{"target gene": "Ifi27l2a", "Tnf reporter robust z-score": -0.44, "fewer than 50 cells in well": "enough cells in well"}
{"target gene": "Nsdhl", "Tnf reporter robust z-score": -0.44, "fewer than 50 cells in well": "enough cells in well"}
{"target gene": "Ncor2", "Tnf reporter robust z-score": -0.42, "fewer than 50 cells in well": "enough cells in well"}
{"target gene": "Mta1", "Tnf reporter robust z-score": 0.46, "fewer than 50 cells in well": "enough cells in well"}
{"target gene": "Vmn1r78", "Tnf reporter robust z-score": "-1.44 (active)", "fewer than 50 cells in well": "enough cells in well"}
{"target gene": "Slc36a1", "fewer than 50 cells in well": "fewer than 50 cells per well; well left out of calls"}
{"target gene": "Psg18", "Tnf reporter robust z-score": -0.8, "fewer than 50 cells in well": "enough cells in well"}
{"target gene": "Cck", "Tnf reporter robust z-score": -0.36, "fewer than 50 cells in well": "enough cells in well"}
{"target gene": "Tmc8", "Tnf reporter robust z-score": 0.06, "fewer than 50 cells in well": "enough cells in well"}
{"target gene": "Itga10", "Tnf reporter robust z-score": -0.61, "fewer than 50 cells in well": "enough cells in well"}
{"target gene": "Dmrtc2", "Tnf reporter robust z-score": 0.26, "fewer than 50 cells in well": "enough cells in well"}
{"target gene": "Vmn1r231", "Tnf reporter robust z-score": -1.22, "fewer than 50 cells in well": "enough cells in well"}
{"target gene": "Lrrk2", "Tnf reporter robust z-score": -1.26, "fewer than 50 cells in well": "enough cells in well"}
{"target gene": "Lrrk2", "fewer than 50 cells in well": "fewer than 50 cells per well; well left out of calls"}

Active calls, among the entries above:
{"target gene": "Vmn1r78", "Tnf reporter robust z-score": "-1.44 (active)", "fewer than 50 cells in well": "enough cells in well"}
